From ChEMBL document CHEMBL3988442, “University of Dundee, Small-Polar-MMV Screening Library” (2021).

T. brucei: 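Whole-parasite assay of Trypanosoma brucei over 72 hours; the read-out is not stated. Tested at 30 µM. Direction is inferred from retests: higher values go with stronger inhibition. Values scatter widely below zero; nearly all retest evidence comes from the higher of the two concentrations used. Size under these conditions: about 64,000 compounds, about 940 of them at 50% or above in at least one test.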
Toxoplasma: 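Assay of Toxoplasma gondii numbers, read through their beta-galactosidase reporter with a colour substrate. Tested at 10 µM. The record gives no direction; the compounds picked for IC50 retests had high values, so higher reads as fewer parasites. Of about 67,000 compounds tested this way, about 260 (0.38%) reached 50% or more in at least one test.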
Leishmania in macrophages: 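Cell assay of Leishmania donovani living inside macrophages; the read-out is not stated. Concentration: 30 µM. The record gives no direction; compounds that gave an IC50 in retests scored well above the rest, so higher reads as stronger inhibition. About 69,000 compounds were tested under these conditions; 1.5% (about 1,000) showed 50% or more at least once.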

Values are the deposited “Percent Effect”, in %.
How 0% and 100% were set is not recorded. Most values in the screen are low, and negative values occur.
The compounds are a random part of those screened.
Two or more numbers in one place are separate tests of the same structure; such repeats can differ widely.

compound: COc1ccc(N2CCN(Cc3nc(CSC)no3)C(C)C2=O)cc1 (stereo not shown)
T. brucei: -24.32
Toxoplasma: -22.25
Leishmania in macrophages: -39.19

compound: CCNC(=O)N1CC(c2nc(Cc3ccccc3)no2)C1
T. brucei: 0.6321
Toxoplasma: -16.33
Leishmania in macrophages: 36.53

compound: CSc1ccccc1NC(=O)CCC(=O)N(C)C1CCN(C)CC1
T. brucei: 10.6
Toxoplasma: -3.406
Leishmania in macrophages: -10.34

compound: [H][C@@]12COC[C@]1(c1nnc(C)o1)CN(C(=O)c1cc(C)no1)C2
T. brucei: -64.65
Toxoplasma: 0.9042
Leishmania in macrophages: 15.94

compound: COCCC(C)NS(=O)(=O)c1ccc(C)c(N(C)C)c1 (stereo not shown)
T. brucei: -20.82
Toxoplasma: -5.358
Leishmania in macrophages: 14.09

compound: [H][C@@]12CC[C@@]([H])(C1)N(CCC(=O)N1CCN(c3cccc(Cl)c3)C(=O)C1)C2
T. brucei: -18.65
Toxoplasma: 16.1
Leishmania in macrophages: -4.685

compound: CC(=O)N1CCN(C(=O)NC(C)C)CC2(CC(=O)N(C)C2)C1 (stereo not shown)
T. brucei: -19.35
Toxoplasma: -12.94
Leishmania in macrophages: 6.648

compound: CCc1cc(C)c(C(=O)N2CCCC2CC(=O)c2cnn(C)c2)o1 (stereo not shown)
T. brucei: 3.937
Toxoplasma: -46.85
Leishmania in macrophages: -15.12

compound: Cn1c(Cn2ccnc2)nnc1C1CCN(C(=O)c2ccccn2)CC1
T. brucei: -25.25
Toxoplasma: -3
Leishmania in macrophages: 40.31

compound: Cc1cnc2n(c1=O)C(CC(=O)NCc1cccs1)CS2 (stereo not shown)
T. brucei: 0.2106
Toxoplasma: 20.76
Leishmania in macrophages: 28.36

compound: [H][C@@]12COC[C@]1(COc1nccc(C)n1)CN(C(=O)Cc1ccsc1)C2
T. brucei: -31.61
Toxoplasma: 19.68
Leishmania in macrophages: 2.418

compound: O=C(CSC1CCc2ccccc2NC1=O)NCCc1ccco1 (stereo not shown)
T. brucei: -41.54
Toxoplasma: -4.841
Leishmania in macrophages: 1.739

compound: O=C(CN1CCCC(c2ncc[nH]2)C1)NCCCN1CCCCCC1=O (stereo not shown)
T. brucei: -10.67
Toxoplasma: 4.588
Leishmania in macrophages: 16.07

compound: O=C(O)C(F)(F)F.[H][C@]12CCN(c3ncc(C)cn3)[C@@]1([H])CC[C@H](COCC(=O)N(C)C)O2
T. brucei: -15.16
Toxoplasma: 11.82
Leishmania in macrophages: 58.41

compound: OC(CNCCn1cccn1)c1ccc(C(F)(F)F)cc1 (stereo not shown)
T. brucei: 5.406
Toxoplasma: -6.434
Leishmania in macrophages: 8.652

compound: O=C(CN1CCCCC1Cn1cncn1)Nc1ccncc1 (stereo not shown)
T. brucei: -18.11
Toxoplasma: 1.007
Leishmania in macrophages: 7.206

compound: NC(=O)c1ccc(CNC(=O)Nc2cn[nH]c2)cc1
T. brucei: -36.38
Toxoplasma: -6.094
Leishmania in macrophages: 0.8206

compound: Fc1cnc(N2CCCC3(CCN(c4ncccn4)C3)C2)nc1 (stereo not shown)
T. brucei: -56.49
Toxoplasma: 15.45
Leishmania in macrophages: 15.26

compound: CCN(CC)c1ncccc1CNCc1ccc(-c2ccn[nH]2)s1
T. brucei: -4.893
Toxoplasma: 7.64
Leishmania in macrophages: 9.334

compound: O=C(O)C(F)(F)F.O=C(O)C(F)(F)F.[H][C@@]12CN(Cc3cccs3)CCC[C@]1(C(=O)OCC)CN(CCOC)C2
T. brucei: -14.7
Toxoplasma: -5.311
Leishmania in macrophages: 19.35

compound: CC(=O)N1CCC(c2n[nH]c3nccnc23)CC1
T. brucei: -10.24
Toxoplasma: -10.54
Leishmania in macrophages: 8.314 and 24.57

compound: Cc1cccc(-c2noc(CN3CCOC(Cn4cccn4)C3)n2)c1 (stereo not shown)
T. brucei: 7.086
Toxoplasma: 13.43
Leishmania in macrophages: 22.16

compound: CC(C)c1nc(CCN(C)C(=O)C2COc3ccccc3C2)no1 (stereo not shown)
T. brucei: -28.71
Toxoplasma: 6.083
Leishmania in macrophages: 2.669

compound: O=c1cc(CNCc2ccc3c(c2)OCO3)nc2ccc(Br)cn12
T. brucei: -18.2
Toxoplasma: 17.3
Leishmania in macrophages: 15.97

compound: CC(=O)N1CCCCCC1C1CCN(Cc2nnc(C(C)(C)C)o2)CC1.Cl (stereo not shown)
Toxoplasma: -2.438
Leishmania in macrophages: -24.71

compound: Cc1cccc(N2CCN(CCC(=O)NCc3ccc(C)s3)CC2)c1
T. brucei: -20.28
Toxoplasma: -17.11
Leishmania in macrophages: -33.2

compound: COc1c(CNCc2ccnc(N3CCOCC3)c2)c(C)nn1C
T. brucei: -2.31
Toxoplasma: -7.154
Leishmania in macrophages: 32.36

compound: CC(Cn1ccnc1)NC(=O)NCCN1CCCCCC1=O (stereo not shown)
T. brucei: -29.55
Toxoplasma: 3.557
Leishmania in macrophages: 11.01

compound: Cc1cc(NC2CC3(CCN(Cc4cscn4)C3)C2)ncn1 (stereo not shown)
T. brucei: -8.577
Toxoplasma: -0.9904
Leishmania in macrophages: -24.53

compound: Cc1cc(S(=O)(=O)Nc2cccc(-n3cccc3)c2)sc1C(=O)O
T. brucei: 5.016
Toxoplasma: 5.901
Leishmania in macrophages: 21.52

compound: Cc1nc(C2(NC(=O)NCc3cc(C#N)ccc3F)CCCC2)no1
T. brucei: -37.1
Toxoplasma: -3.657
Leishmania in macrophages: 10.62

compound: CCNC(=O)c1ccc(NC(=O)N(C)Cc2cc(C)on2)cc1
T. brucei: -30.15
Toxoplasma: 18.69
Leishmania in macrophages: -12.74

compound: COc1ccccc1C1(C(=O)N2CCN(CC(C)O)CC2)CC1 (stereo not shown)
T. brucei: -34.25
Toxoplasma: 9.353
Leishmania in macrophages: 15.11

compound: COc1ccccc1N1CCN(C(=O)Cn2nc(C)c(C)c2C)C(C)C1 (stereo not shown)
T. brucei: -5.13
Toxoplasma: 0.6775
Leishmania in macrophages: 10.37

The last 3 entries again:

{"compound": "CCNC(=O)c1ccc(NC(=O)N(C)Cc2cc(C)on2)cc1", "T. brucei": -30.15, "Toxoplasma": 18.69, "Leishmania in macrophages": -12.74}
{"compound": "COc1ccccc1C1(C(=O)N2CCN(CC(C)O)CC2)CC1", "stereo": "stereo not shown", "T. brucei": -34.25, "Toxoplasma": 9.353, "Leishmania in macrophages": 15.11}
{"compound": "COc1ccccc1N1CCN(C(=O)Cn2nc(C)c(C)c2C)C(C)C1", "stereo": "stereo not shown", "T. brucei": -5.13, "Toxoplasma": 0.6775, "Leishmania in macrophages": 10.37}